## Assay results

From PubChem BioAssay record AID504749 (NCATS, 2011).

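Malaria parasite (P. falciparum) lines kept in red blood cells; parasite DNA is measured by SYBR Green fluorescence after lysis, 72 h after compound addition.
Each compound was titrated across a series from about 0.000037 to 29 µM.
The number is the fitted AC50, the concentration giving a half-maximal change in signal; a lower value means higher potency, whether the curve shows a decrease or an increase.
Calls follow the curve class and fit quality: every row here is inconclusive, covering signal-raising curves and weak, poorly fitted, partial or highest-dose-only inhibition curves.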

Values are in µM.
Every entry below has the call inconclusive.
Only part of the assay is shown, chiefly results filed as inconclusive.
Potencies fitted to partial, single-point or poorly fitting curves are rough.
Some entries filed as inconclusive have a full curve.

| structure | setting | potency (µM) | curve as filed |
|---|---|---|---|
| `CN(C)c1ccc(C(=C2C=CC(=[N+](C)C)C=C2)c2ccccc2)cc1` | ECU | 11.22 | inhibitor, single point |
| `CN(C)c1ccc(C(=C2C=CC(=[N+](C)C)C=C2)c2ccccc2)cc1` | DIV30 | 4.256 | inhibitor, partial curve, poor fit |
| `CN(C)c1ccc(C(=C2C=CC(=[N+](C)C)C=C2)c2ccccc2)cc1` | PC15 | 10 | inhibitor, single point |
| `CN(C)c1ccc(C(=C2C=CC(=[N+](C)C)C=C2)c2ccccc2)cc1` | CP291 | 8.492 | inhibitor, partial curve, poor fit |
| `CN(C)c1ccc(C(=C2C=CC(=[N+](C)C)C=C2)c2ccccc2)cc1` | CP315 | 15.1 | inhibitor, single point |
| `CN(C)c1ccc(C(=C2C=CC(=[N+](C)C)C=C2)c2ccccc2)cc1` | CP185 | 11.22 | inhibitor, single point |
| `CN(C)c1ccc(C(=C2C=CC(=[N+](C)C)C=C2)c2ccccc2)cc1` | CP305 | 3.381 | inhibitor, partial curve, poor fit |
| `CN(C)c1ccc(C(=C2C=CC(=[N+](C)C)C=C2)c2ccccc2)cc1` | ATS95 | 12.59 | inhibitor, single point |
| `CN(C)c1ccc(C(=C2C=CC(=[N+](C)C)C=C2)c2ccccc2)cc1` | N140 | 10 | inhibitor, partial curve |
| `CN(C)c1ccc(C(=C2C=CC(=[N+](C)C)C=C2)c2ccccc2)cc1` | CP194 | 6.012 | inhibitor, partial curve |
| `CN(C)c1ccc(C(=C2C=CC(=[N+](C)C)C=C2)c2ccccc2)cc1` | CP238 | 10 | inhibitor, single point |
| `CN(C)c1ccc(C(=C2C=CC(=[N+](C)C)C=C2)c2ccccc2)cc1` | CP268 | 13.46 | inhibitor, single point |
| `CN(C)c1ccc(C(=C2C=CC(=[N+](C)C)C=C2)c2ccccc2)cc1` | CP215 | 13.46 | inhibitor, single point |
| `CN(C)c1ccc(C(=C2C=CC(=[N+](C)C)C=C2)c2ccccc2)cc1` | DFO2036 | 12.59 | inhibitor, single point |
| `CN(C)c1ccc(C(=C2C=CC(=[N+](C)C)C=C2)c2ccccc2)cc1` | PC26 | 13.46 | inhibitor, partial curve |
| `COc1ccc2c(c1OC)CN1CCc3cc4c(cc3[C@H]1C2)OCO4` | PC15 | 3.162 | inhibitor, partial curve |
| `COc1ccc2c(c1OC)CN1CCc3cc4c(cc3[C@H]1C2)OCO4` | DFO2036 | 3.548 | inhibitor, partial curve |
| `COc1ccc2c(c1OC)CN1CCc3cc4c(cc3[C@H]1C2)OCO4` | CP247 | 1.778 | inhibitor, partial curve |
| `COc1ccc2c(c1OC)CN1CCc3cc4c(cc3[C@H]1C2)OCO4` | CP252 | 3.162 | inhibitor, partial curve |
| `COc1ccc2c(c1OC)CN1CCc3cc4c(cc3[C@H]1C2)OCO4` | CP250 | 1.259 | inhibitor, partial curve |
| `COc1ccc2c(c1OC)CN1CCc3cc4c(cc3[C@H]1C2)OCO4` | JCK | 4.467 | inhibitor, single point |
| `COc1ccc2c(c1OC)CN1CCc3cc4c(cc3[C@H]1C2)OCO4` | SC27B | 3.548 | inhibitor, single point |
| `COc1ccc2c(c1OC)CN1CCc3cc4c(cc3[C@H]1C2)OCO4` | ECU | 3.162 | inhibitor, partial curve |
| `COc1ccc2c(c1OC)CN1CCc3cc4c(cc3[C@H]1C2)OCO4` | CP191 | 1.585 | inhibitor, full curve |
| `COc1ccc2c(c1OC)CN1CCc3cc4c(cc3[C@H]1C2)OCO4` | ICS | 2.239 | inhibitor, partial curve |
| `COc1ccc2c(c1OC)CN1CCc3cc4c(cc3[C@H]1C2)OCO4` | CP237 | 3.162 | inhibitor, partial curve |
| `COc1ccc2c(c1OC)CN1CCc3cc4c(cc3[C@H]1C2)OCO4` | CP291 | 2.279 | inhibitor, partial curve |
| `COc1ccc2c(c1OC)CN1CCc3cc4c(cc3[C@H]1C2)OCO4` | Dd2 | 7.08 | inhibitor, single point |
| `COc1ccc2c(c1OC)CN1CCc3cc4c(cc3[C@H]1C2)OCO4` | PC49 | 3.981 | inhibitor, partial curve |
| `COc1ccc2c(c1OC)CN1CCc3cc4c(cc3[C@H]1C2)OCO4` | N140 | 3.548 | inhibitor, single point |
| `COc1ccc2c(c1OC)CN1CCc3cc4c(cc3[C@H]1C2)OCO4` | TAB165 | 2.239 | inhibitor, partial curve |
| `COc1ccc2c(c1OC)CN1CCc3cc4c(cc3[C@H]1C2)OCO4` | CP194 | 2.031 | inhibitor, partial curve |

Some entries from above, unchanged:

| structure | setting | potency (µM) | curve as filed |
|---|---|---|---|
| `COc1ccc2c(c1OC)CN1CCc3cc4c(cc3[C@H]1C2)OCO4` | CP250 | 1.259 | inhibitor, partial curve |
| `CN(C)c1ccc(C(=C2C=CC(=[N+](C)C)C=C2)c2ccccc2)cc1` | ATS95 | 12.59 | inhibitor, single point |
| `COc1ccc2c(c1OC)CN1CCc3cc4c(cc3[C@H]1C2)OCO4` | ECU | 3.162 | inhibitor, partial curve |